Test results: the supplement of paper PMC10849652
This is one part of the list.

By UniProt entry, the sequences of proteins in these tests, tags left out. Where a name states a change or a piece, a line headed by the entry shows the natural chain unless it says otherwise.
UniProt Q9Y3A3: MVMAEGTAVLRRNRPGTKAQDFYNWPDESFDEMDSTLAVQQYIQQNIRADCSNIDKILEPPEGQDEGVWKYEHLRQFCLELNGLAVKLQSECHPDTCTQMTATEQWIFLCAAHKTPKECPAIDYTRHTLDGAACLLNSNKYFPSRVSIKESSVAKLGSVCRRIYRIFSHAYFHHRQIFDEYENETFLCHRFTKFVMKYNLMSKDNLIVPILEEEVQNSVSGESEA
UniProt Q99547: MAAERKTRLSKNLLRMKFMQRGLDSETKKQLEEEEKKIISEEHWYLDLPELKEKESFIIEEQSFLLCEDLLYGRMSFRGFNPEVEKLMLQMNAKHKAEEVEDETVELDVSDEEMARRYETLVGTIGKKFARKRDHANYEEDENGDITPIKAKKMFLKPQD
UniProt O75352: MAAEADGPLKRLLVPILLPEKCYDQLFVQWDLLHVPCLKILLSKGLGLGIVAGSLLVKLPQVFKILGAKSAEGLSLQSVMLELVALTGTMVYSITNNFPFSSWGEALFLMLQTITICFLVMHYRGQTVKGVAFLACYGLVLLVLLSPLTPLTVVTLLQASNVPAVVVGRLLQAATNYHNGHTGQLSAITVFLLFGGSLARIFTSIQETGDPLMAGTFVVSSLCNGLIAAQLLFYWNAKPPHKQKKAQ
UniProt O95563: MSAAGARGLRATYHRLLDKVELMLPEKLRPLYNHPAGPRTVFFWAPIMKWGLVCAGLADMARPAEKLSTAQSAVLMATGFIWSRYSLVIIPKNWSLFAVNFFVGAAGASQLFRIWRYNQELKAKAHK
UniProt Q9BU76: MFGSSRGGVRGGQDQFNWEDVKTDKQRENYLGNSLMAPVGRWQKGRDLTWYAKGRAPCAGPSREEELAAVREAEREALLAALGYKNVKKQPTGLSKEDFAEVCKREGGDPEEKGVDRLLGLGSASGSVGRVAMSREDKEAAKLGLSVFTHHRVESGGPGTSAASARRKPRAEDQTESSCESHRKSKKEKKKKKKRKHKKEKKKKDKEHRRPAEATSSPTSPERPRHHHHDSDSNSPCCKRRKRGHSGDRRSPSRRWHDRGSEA
UniProt Q14165: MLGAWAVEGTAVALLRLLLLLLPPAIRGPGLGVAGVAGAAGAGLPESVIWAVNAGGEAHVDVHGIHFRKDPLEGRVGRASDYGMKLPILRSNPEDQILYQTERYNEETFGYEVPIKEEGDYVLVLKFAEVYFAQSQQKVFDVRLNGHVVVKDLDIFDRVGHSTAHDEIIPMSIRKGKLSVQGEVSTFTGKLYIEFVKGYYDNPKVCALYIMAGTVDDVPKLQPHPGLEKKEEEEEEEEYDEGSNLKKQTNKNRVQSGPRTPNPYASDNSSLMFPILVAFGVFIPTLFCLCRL
UniProt Q9UNW1: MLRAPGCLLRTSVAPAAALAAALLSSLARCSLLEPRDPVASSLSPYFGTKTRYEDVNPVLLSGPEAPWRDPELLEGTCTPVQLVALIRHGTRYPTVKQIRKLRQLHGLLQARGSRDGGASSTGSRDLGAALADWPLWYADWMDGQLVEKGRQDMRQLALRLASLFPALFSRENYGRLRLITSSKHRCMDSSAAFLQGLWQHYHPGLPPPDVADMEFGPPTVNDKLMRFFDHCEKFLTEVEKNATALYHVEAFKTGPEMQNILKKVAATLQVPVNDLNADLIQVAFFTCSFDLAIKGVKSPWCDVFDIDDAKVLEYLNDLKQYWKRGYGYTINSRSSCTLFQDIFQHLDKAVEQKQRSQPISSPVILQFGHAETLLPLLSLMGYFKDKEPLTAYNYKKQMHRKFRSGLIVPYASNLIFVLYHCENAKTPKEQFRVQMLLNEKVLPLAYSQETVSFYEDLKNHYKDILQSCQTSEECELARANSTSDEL
UniProt Q8N4V1: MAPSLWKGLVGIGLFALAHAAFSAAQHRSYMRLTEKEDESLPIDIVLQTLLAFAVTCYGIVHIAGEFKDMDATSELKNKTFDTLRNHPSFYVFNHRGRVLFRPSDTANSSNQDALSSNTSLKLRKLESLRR
UniProt Q9UH92: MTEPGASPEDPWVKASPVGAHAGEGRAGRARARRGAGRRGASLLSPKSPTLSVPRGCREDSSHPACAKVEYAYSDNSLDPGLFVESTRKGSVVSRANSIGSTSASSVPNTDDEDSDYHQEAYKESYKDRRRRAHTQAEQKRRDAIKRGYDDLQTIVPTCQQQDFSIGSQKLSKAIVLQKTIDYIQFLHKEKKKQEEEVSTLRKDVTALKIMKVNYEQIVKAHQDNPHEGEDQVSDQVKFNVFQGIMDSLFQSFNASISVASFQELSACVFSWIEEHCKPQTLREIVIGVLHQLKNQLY
UniProt P08473: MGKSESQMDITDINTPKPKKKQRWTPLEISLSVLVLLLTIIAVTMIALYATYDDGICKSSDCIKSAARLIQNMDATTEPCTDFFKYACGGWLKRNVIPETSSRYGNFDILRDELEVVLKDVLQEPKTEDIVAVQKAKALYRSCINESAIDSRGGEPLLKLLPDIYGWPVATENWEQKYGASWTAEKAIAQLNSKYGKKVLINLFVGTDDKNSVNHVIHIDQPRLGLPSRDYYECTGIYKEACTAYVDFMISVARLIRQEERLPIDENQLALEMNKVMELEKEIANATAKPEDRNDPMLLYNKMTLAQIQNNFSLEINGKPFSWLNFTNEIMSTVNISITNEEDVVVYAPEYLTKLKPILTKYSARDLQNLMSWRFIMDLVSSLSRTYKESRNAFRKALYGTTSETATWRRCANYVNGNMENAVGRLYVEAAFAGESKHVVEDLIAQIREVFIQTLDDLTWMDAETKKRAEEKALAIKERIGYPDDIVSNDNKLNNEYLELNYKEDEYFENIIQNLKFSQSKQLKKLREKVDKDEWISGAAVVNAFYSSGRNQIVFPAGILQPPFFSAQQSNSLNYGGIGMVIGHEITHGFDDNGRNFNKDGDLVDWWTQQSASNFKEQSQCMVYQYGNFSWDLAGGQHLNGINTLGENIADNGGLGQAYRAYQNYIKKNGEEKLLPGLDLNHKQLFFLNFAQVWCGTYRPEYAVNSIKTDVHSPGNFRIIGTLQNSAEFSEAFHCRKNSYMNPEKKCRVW
UniProt Q95460, whole entry, looked up: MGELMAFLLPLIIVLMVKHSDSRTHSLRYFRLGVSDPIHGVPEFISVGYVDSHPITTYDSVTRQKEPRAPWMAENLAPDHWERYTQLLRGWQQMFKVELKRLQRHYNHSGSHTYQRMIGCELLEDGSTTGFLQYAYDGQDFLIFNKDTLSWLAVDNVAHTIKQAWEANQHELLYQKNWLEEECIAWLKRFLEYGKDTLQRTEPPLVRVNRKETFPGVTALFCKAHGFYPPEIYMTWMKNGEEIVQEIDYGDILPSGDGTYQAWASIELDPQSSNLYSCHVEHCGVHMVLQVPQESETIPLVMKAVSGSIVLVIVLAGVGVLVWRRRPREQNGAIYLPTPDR
UniProt P40692: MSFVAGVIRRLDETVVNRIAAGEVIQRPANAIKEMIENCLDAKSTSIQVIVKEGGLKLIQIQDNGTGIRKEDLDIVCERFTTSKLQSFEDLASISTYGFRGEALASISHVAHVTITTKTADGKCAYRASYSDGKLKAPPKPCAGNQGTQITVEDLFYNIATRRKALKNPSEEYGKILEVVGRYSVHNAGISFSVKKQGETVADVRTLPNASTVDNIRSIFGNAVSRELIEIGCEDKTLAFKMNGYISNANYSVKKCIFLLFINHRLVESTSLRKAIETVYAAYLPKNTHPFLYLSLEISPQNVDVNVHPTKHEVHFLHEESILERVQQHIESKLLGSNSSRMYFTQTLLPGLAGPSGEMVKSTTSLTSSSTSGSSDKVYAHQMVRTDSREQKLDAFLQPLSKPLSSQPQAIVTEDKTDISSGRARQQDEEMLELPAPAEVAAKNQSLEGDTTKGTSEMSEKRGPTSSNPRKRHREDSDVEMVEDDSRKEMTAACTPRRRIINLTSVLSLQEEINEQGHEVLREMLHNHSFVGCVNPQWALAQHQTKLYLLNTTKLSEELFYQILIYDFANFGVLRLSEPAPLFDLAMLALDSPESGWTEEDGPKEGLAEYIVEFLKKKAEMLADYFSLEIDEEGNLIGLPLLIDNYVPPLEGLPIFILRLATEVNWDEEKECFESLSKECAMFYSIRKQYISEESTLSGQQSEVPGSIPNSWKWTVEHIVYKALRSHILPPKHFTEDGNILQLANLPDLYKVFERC
UniProt Q86VX9: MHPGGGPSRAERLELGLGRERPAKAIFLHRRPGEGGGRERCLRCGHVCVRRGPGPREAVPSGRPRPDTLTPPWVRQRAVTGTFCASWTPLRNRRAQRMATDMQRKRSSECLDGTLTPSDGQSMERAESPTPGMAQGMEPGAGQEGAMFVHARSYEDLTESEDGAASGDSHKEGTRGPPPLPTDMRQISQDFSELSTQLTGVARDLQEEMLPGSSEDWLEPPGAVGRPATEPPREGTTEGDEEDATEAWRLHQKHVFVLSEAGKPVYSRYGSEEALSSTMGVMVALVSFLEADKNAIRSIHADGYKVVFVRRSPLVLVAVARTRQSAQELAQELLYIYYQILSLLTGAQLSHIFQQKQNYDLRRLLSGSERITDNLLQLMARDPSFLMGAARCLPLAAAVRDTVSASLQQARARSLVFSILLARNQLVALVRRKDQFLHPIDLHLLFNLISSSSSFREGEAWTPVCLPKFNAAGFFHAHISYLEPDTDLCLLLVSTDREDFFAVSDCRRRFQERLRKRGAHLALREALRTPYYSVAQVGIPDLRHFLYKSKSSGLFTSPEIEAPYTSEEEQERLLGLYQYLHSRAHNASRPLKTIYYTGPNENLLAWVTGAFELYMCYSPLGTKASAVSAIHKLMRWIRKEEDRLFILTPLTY
UniProt Q70IA6: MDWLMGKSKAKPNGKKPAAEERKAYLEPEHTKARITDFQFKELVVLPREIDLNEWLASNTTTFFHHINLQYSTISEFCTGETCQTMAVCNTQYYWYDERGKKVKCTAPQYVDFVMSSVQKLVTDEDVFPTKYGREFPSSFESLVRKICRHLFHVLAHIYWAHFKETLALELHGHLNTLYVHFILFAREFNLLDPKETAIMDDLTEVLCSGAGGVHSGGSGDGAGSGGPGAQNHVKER
UniProt Q5TGZ0: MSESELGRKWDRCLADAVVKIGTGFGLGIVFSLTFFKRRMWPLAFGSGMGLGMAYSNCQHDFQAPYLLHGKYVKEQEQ
UniProt Q9BUB5: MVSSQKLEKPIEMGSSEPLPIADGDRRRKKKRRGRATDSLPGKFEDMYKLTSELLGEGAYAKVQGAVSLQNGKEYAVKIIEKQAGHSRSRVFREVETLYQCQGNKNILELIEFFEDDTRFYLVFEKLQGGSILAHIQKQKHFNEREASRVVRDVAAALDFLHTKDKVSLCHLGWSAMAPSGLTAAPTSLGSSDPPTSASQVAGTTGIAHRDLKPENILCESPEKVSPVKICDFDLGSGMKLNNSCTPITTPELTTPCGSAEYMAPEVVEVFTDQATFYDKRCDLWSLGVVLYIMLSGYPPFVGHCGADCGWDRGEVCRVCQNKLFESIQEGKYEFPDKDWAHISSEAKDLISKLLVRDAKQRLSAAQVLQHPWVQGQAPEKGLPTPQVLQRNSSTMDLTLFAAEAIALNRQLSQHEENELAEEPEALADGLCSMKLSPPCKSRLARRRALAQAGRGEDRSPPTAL
UniProt Q15014, whole entry, looked up: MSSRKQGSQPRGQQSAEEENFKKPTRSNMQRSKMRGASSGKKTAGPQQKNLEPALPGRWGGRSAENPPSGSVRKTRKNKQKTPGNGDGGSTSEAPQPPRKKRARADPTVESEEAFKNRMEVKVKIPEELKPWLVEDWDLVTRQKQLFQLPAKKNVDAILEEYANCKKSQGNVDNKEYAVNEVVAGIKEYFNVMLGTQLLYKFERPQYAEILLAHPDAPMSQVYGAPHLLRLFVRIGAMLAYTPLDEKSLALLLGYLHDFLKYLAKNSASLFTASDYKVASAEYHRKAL
UniProt Q9H3L0: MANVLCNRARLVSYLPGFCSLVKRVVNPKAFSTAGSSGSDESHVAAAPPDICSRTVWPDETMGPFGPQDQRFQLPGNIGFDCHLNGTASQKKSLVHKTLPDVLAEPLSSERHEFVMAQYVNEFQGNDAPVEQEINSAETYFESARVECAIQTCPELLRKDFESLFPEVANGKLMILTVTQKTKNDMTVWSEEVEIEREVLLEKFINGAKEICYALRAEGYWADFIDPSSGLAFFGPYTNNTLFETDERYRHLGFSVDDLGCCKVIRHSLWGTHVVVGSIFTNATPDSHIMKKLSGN

Experiments:
Experiment in all cases: log2 fold change, soluble protein after heating vs DMSO (PISA); higher = thermal stabilisation; K562 cells, 10 uM, 30 min; active = over 0.2 and 3.5 SD of the protein, either way, in both replicates (recomputed)
[1] = compound: CN1CCN(CCOc2cc(OC3CCOCC3)c3c(Nc4c(Cl)ccc5c4OCO5)ncnc3c2)CC1 [saracatinib]
Outline: (§1)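 Soluble protein was quantified by TMTpro 16plex LC-MS/MS after channel sums were equalised. It was obtained as the supernatant after 21,000xg for 90 min from pooled aliquots of K562 cells (2×10^6 cells/mL, 10 μM compound, 30 min) heated for 3 min across 48°C-58°C and extracted in PBS with 0.5% NP-40 at 4°C. Thermal stability values are relative to control samples and come from duplicates. They are given as log2 fold changes.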

[2] = compound: CN1CCN(c2nc(C3=C(c4c[nH]c5ccccc45)C(=O)NC3=O)c3ccccc3n2)CC1 [sotrastaurin]
Outline: as §1

[3] = compound: CN1CC[C@H](c2c(O)cc(O)c3c(=O)cc(-c4ccccc4Cl)oc23)[C@H](O)C1 [alvocidib]
Outline: as §1

[4] = compound: CN1CCc2c(c3ccccc3n2Cc2ccc(C(=O)NO)cc2)C1 [Tubastatin A]
Outline: as §1

[5] = compound: CNC(=O)C1=CC=CC=C1NC2=NC(=NC=C2Cl)NC3=C(C=C(C=C3)N4CCOCC4)OC
Outline: as §1

[6] = compound: CNC(=O)c1ccc(Nc2ncc(C(F)(F)F)c(NCc3nccnc3N(C)S(C)(=O)=O)n2)cc1 [defactinib]
Outline: as §1

[7] = compound: CNCc1ccc(-c2[nH]c3cc(F)cc4c3c2CCNC4=O)cc1 [rucaparib]
Outline: as §1

[8] = compound: CNc1nc(-c2ccc3c(N)n[nH]c3c2)cc(N2C[C@@H](C(=O)NC3CCCCC3)CC[C@H]2C)n1
Outline: as §1

[9] = compound: COC(=O)N[C@@H](C)CNc1nccc(-c2cn(C(C)C)nc2-c2cc(Cl)cc(NS(C)(=O)=O)c2F)n1 [encorafenib]
Outline: as §1

[10] = compound: COC(=O)[C@H](CCSC)NC(=O)C1=C(C=C(C=C1)NC[C@H](CS)N)C2=CC=CC=C2
Outline: as §1

Measured: log2 fold change

MOB4 (UniProt Q9Y3A3)
inactive: [1] 0.082 | [2] 0.014 | [3] -0.06 | [4] -0.063 | [5] -0.003 | [6] -0.065 | [7] -0.049 | [8] 0.004 | [9] 0.051 | [10] 0.025

MPHOSPH6 (UniProt Q99547)
inactive: [1] -0.056 | [2] 0.063 | [3] 0.062 | [4] 0.058 | [5] -0.016 | [6] 0.078 | [7] 0.121 | [8] 0.042 | [9] 0.156 | [10] 0.079

MPDU1 (UniProt O75352)
inactive: [1] 0.12 | [2] -0.02 | [3] 0.025 | [4] -0.055 | [5] -0.082 | [6] -0.017 | [7] -0.113 | [8] -0.066 | [9] 0.054 | [10] 0.055

MPC2 (UniProt O95563)
inactive: [1] 0.039 | [2] 0.029 | [3] -0.013 | [4] 0.007 | [5] -0.039 | [6] -0.015 | [7] -0.074 | [8] -0.11 | [9] 0.03 | [10] 0.018

MRPL49 (UniProt Q13405)
inactive: [1] -0.179 | [2] -0.04 | [3] 0.035 | [4] 0.026 | [5] -0.065 | [6] -0.019 | [7] 0.074 | [8] 0.067 | [9] 0.041 | [10] -0.059

MRPL30 isoform 2 (UniProt Q8TCC3)
inactive: [1] -0.18 | [2] -0.041 | [3] 0.172 | [4] 0.141 | [5] -0.085 | [6] 0.122 | [7] 0.144 | [8] 0.148 | [9] 0.158 | [10] -0.095

MMTAG2 (UniProt Q9BU76)
inactive: [1] -0.015 | [2] -0.018 | [3] 0.158 | [4] 0.121 | [5] 0.003 | [6] 0.304 | [7] 0.138 | [8] -0.072 | [9] 0.014 | [10] -0.054

MLEC (UniProt Q14165)
inactive: [1] -0.048 | [2] -0.016 | [3] 0.015 | [4] 0.004 | [5] -0.004 | [6] 0.011 | [7] 0.002 | [8] 0.009 | [9] 0.032 | [10] -0.028

MRPL33 (UniProt O75394)
inactive: [1] -0.255 | [2] 0.015 | [3] 0.091 | [4] 0.08 | [5] 0.105 | [6] 0.136 | [7] 0.067 | [8] 0.226 | [9] 0.19 | [10] -0.044

MRPL38 (UniProt Q96DV4)
inactive: [1] -0.183 | [2] -0.035 | [3] 0.139 | [4] 0.069 | [5] -0.03 | [6] 0.184 | [7] 0.145 | [8] 0.129 | [9] 0.118 | [10] -0.002

MRPL44 (UniProt Q9H9J2)
inactive: [1] -0.183 | [2] -0.057 | [3] 0.08 | [4] 0.091 | [5] -0.03 | [6] 0.123 | [7] 0.088 | [8] 0.083 | [9] 0.176 | [10] -0.05

MRPL48 (UniProt Q96GC5)
inactive: [1] -0.11 | [2] -0.046 | [3] 0.109 | [4] 0.082 | [5] -0.071 | [6] 0.105 | [7] 0.117 | [8] 0.223 | [9] 0.081 | [10] 0.04

MKI67 (UniProt P46013)
inactive: [1] -0.042 | [2] 0.073 | [3] 0.112 | [4] -0.018 | [5] 0.007 | [6] 0.024 | [7] 0.105 | [8] 0.115 | [9] -0.037 | [10] 0.037

MINPP1 (UniProt Q9UNW1)
inactive: [1] 0.037 | [2] 0.043 | [3] -0.014 | [4] -0.003 | [5] 0.02 | [6] -0.005 | [7] 0.003 | [8] -0.079 | [9] 0.012 | [10] 0.008

MRPL12 (UniProt P52815)
inactive: [1] -0.01 | [2] -0.024 | [3] -0.014 | [4] 0.039 | [5] 0.022 | [6] 0.006 | [7] -0.11 | [8] -0.007 | [9] 0.069 | [10] -0.069

MRPL39 (UniProt Q9NYK5)
inactive: [1] -0.123 | [2] -0.032 | [3] 0.079 | [4] 0.04 | [5] 0.016 | [6] 0.089 | [7] 0.073 | [8] 0.073 | [9] 0.058 | [10] -0.033

MMGT1 isoform 2 (UniProt Q8N4V1)
inactive: [1] 0.048 | [2] -0.032 | [3] 0.002 | [4] -0.008 | [5] 0.04 | [6] -0.022 | [7] -0.016 | [8] -0.022 | [9] 0 | [10] -0.032

MRPL2 (UniProt Q5T653)
inactive: [1] -0.198 | [2] -0.072 | [3] 0.114 | [4] 0.113 | [5] 0.033 | [6] 0.189 | [7] 0.146 | [8] 0.143 | [9] 0.105 | [10] 0.013

MICB, A0A140T979
inactive: [1] 0.064 | [3] -0.02 | [4] 0.079 | [5] 0.019 | [6] 0.013 | [7] -0.071 | [8] 0.042 | [9] 0.058 | [10] -0.02

MLX (UniProt Q9UH92)
inactive: [1] -0.171 | [2] -0.084 | [4] 0.075 | [5] -0.149 | [7] -0.169 | [8] 0.004 | [9] 0.149

MME (UniProt P08473)
inactive: [1] -0.122 | [5] -0.002 | [6] 0.028 | [7] 0 | [8] -0.05 | [9] 0.139 | [10] 0.08

MR1 (UniProt Q95460)
inactive: [5] -0.037

MRPL52 (UniProt Q86TS9)
inactive: [1] -0.165 | [2] 0.061 | [7] 0.064 | [8] -0.104 | [9] 0.043

MLH1 (UniProt P40692)
inactive: [1] -0.103 | [4] 0.158 | [8] -0.168

MRAS (UniProt O14807)
inactive: [5] -0.131 | [7] -0.008 | [9] -0.014

MON1A (UniProt Q86VX9)
inactive: [1] 0.013 | [2] 0.058 | [4] 0.047 | [5] -0.103 | [7] -0.023 | [8] 0.029 | [9] 0.253

MOB2 isoform 3 (UniProt Q70IA6)
inactive: [4] -0.073 | [5] -0.123

MICOS10 (UniProt Q5TGZ0)
inactive: [2] -0.068 | [4] -0.214 | [5] 0.037 | [6] -0.019 | [7] -0.105 | [9] 0.055 | [10] 0.053

MRPL57 (UniProt Q9BQC6)
inactive: [1] -0.298 | [2] -0.004 | [4] 0.091 | [5] 0.023 | [6] 0.197 | [7] 0.033 | [8] 0.118 | [9] 0.061 | [10] -0.048

MKNK1 (UniProt Q9BUB5)
inactive: [1] 0.049 | [2] -0.088 | [4] 0.037 | [5] 0.038 | [6] -0.102 | [7] 0.099 | [8] 0.051 | [9] 0.018 | [10] -0.053

MORF4L2 (UniProt Q15014)
inactive: [1] -0.002 | [2] -0.01 | [4] 0.136 | [5] -0.003 | [6] 0.011 | [7] 0.056 | [8] -0.1 | [9] 0.04 | [10] 0.066

MMADHC (UniProt Q9H3L0)
inactive: [1] -0.044 | [4] 0.07 | [5] -0.011 | [6] -0.061 | [7] 0.139 | [8] 0.062 | [9] -0.031 | [10] -0.011

7 successive records already listed, quoted:
MRPL52 (UniProt Q86TS9)
inactive: [1] -0.165 | [2] 0.061 | [7] 0.064 | [8] -0.104 | [9] 0.043

MLH1 (UniProt P40692)
inactive: [1] -0.103 | [4] 0.158 | [8] -0.168

MRAS (UniProt O14807)
inactive: [5] -0.131 | [7] -0.008 | [9] -0.014

MON1A (UniProt Q86VX9)
inactive: [1] 0.013 | [2] 0.058 | [4] 0.047 | [5] -0.103 | [7] -0.023 | [8] 0.029 | [9] 0.253

MOB2 isoform 3 (UniProt Q70IA6)
inactive: [4] -0.073 | [5] -0.123

MICOS10 (UniProt Q5TGZ0)
inactive: [2] -0.068 | [4] -0.214 | [5] 0.037 | [6] -0.019 | [7] -0.105 | [9] 0.055 | [10] 0.053

MRPL57 (UniProt Q9BQC6)
inactive: [1] -0.298 | [2] -0.004 | [4] 0.091 | [5] 0.023 | [6] 0.197 | [7] 0.033 | [8] 0.118 | [9] 0.061 | [10] -0.048
